In the GenesisPotency data set:
The campaign covered roughly 73,000 compounds. About 1,800 (2.5%) were called active. Not shown: some 13% with an inconclusive outcome. Calls follow the shape of the dose curve; as a rule, active = well fitted activation curve with a large enough effect; inconclusive = small, poorly fitted or top-dose-only effect; inactive = no such curve, though single readings can be large or run the other way. The list shows a part of the results.

Assay: qHTS Assay for Agonists of the Thyroid Stimulating Hormone Receptor: Activators of Intracellular cAMP Concentrations in Parental HEK 293

Compound	outcome
CNC(=O)N(c1ccccc1)c1ccccc1	inactive
Cc1nnc(NS(=O)(=O)c2ccc(N)cc2)s1	inactive
